Source: patent publication US10953003B2, “Methods for treating cancer” (X4 Pharmaceuticals, Inc., priority 2015, dated 2021)

Tests used:
[1] = tested on: 786-0 RCC xenografts; experiment: Murine 786-0 RCC xenograft model; assay type: in vivo, mice; settings: 786-0 xenografts; FIG. 4A
Method: (§1) With each of the human cell lines, 1×10^7 tumor cells were implanted subcutaneously in the flanks of 36 nude/beige mice and tumors allowed to grow to roughly 7 mm in diameter. […] Therefore, on day 7, the mice were sacrificed and the tumors were measured and immediately excised and divided into three parts. One part of each tumor was paraffin-embedded for dual color immunofluorescence. Another part was mechanically disaggregated and treated with collagenase/DNAse to generate a single cell suspension for flow cytometry. The third part was frozen for future pharmacokinetic analysis. Microscope slides were made from the paraffin-embedded tumor tissue, which were stained with antibodies against CD11b, Gr-1, and FAP. The number of infiltrating CD11b+/Gr-1+ MDSC and FAP+ fibroblasts present in the tumor tissue was then determined by immunofluorescence (IF) as previously described (1).
(§2) The disaggregated tumor specimens were analyzed for CD11b+/Gr-1+ MDSC and FAP+ fibroblasts by flow cytometry. The fraction of both populations expressing CXCR4 were also determined. […] One part was disaggregated into single cell suspensions and analyzed by flow cytometry as above for MDSC. […] Finally, a bone marrow (BM) sample was generated by extruding marrow from an excised femur with a syringe filled with saline and analyzed by flow cytometry for MDSC.

[2] = tested on: A498 RCC xenografts; experiment: Murine A498 RCC xenograft model; assay type: in vivo, mice; settings: FIG. 4C
Method: as §1, §2

CNC(=O)c1ccccc1Sc1ccc2c(/C=C/c3ccccn3)n[nH]c2c1 [axitinib, N-methyl-2-[3((E)-2-pyridin-2-yl-vinyl)-1H-indazol-6-ylsulfanyl]-benzamide]
Ki-67 positive tumor cells (IHC staining) [1]: increase in Ki-67 positive tumor cells | Ki-67 positive tumor cells (IHC staining) [2]: increase in Ki-67 positive tumor cells
